Measurements published in publication PMC6686046.

Legend:
[1] = molecular target: FLAG-FlgX (Campylobacter jejuni 81-176); experiment: co-IP; C. jejuni cells cross-linked with 0.1% formaldehyde, quenched with glycine, osmotically lysed, solubilised with Triton X-100; FLAG-tagged FlgX precipitated overnight at 4°C with anti-FLAG M2 affinity gel resin, 3 washes with RIPA buffer; preys detected by immunoblot with specific antisera; strains ΔflgX, ΔflgX ΔmotB, ΔflgX ΔmotA and ΔflgX motA_(H138Y)
[2] = molecular target: FlgX-FLAG (Campylobacter jejuni 81-176); experiment: as above

Binder	binding [1]	binding [2]
MotB (protein, UniProt Q0PBH3 1-247) MAKKHKCPECPAGEKWAVPYADFLSLLLALFIALWAISKTNPAKVEALKTEFVKIFDYTSTQTVKEESKTQEKYKGAAKEESDELKSLKQMTMTQQETIKRLQAALDQSDNQVALNLPSKVEFERGSAQIVSADIQDYLKRMAELTTYLPPQAKIEIRGYTDNSDSIIRSYELAYQRAENVLKYFIEGGANLKNISIKSYGLNNPINGNPQTLENNRVEIYFKVDTADTSTQKSVLELINKIGTKAP	binds	binds
FliF MS ring protein (protein, UniProt Q0PBJ1 1-560) MDFKNMLHQIGQLYQNLTRKQRIVIAASIIVVVGFLVFLALFRGSGSNANNGYAVLVENVSPSSSAAIVAKLEQNNIPYKLESENKILVPQDQVYRQRMFIASEGLIKDSRVGFEAFDTQAFGATNEEQKVKYQRAIEGELARTIETLEPIRSAVVHIAFPKDSVFTERQIPPTASVVVNVREGLKLTRKQIDGIKNIVSAAVPKLTKENVKISDQSGVPLDEQEAYEDDLVRAQIKFKSDQEKALEDKIIENLAPFAGGMDKVKVSVNIDFDFSKQESQSEIYDPNPIVRSEQTLNEERTGRKDPEIQGVPGAVSNIGPVEGLDNKGQIDTYKKNQVTTNNELSKTITNTKKQFATVLRTSAAVTIDGKYQDVVDENGDVKSEYVPLTKEELASVESIVKNTINFSATRGDSVVVQNLPFHRESIRVESKVKTFYNRFVEPFIPPVKYFIAAILLFIFYKKVIAPFTQKMLEDVAAQEEMQQGPNAVLDDAEDALEKFNAARKKVEEQLGFGDNFNEDSIQYEVLLEKLRGLVSDKGEEIAALLQNLIQNDSEFGEKDM	no binding	no binding

No constants are given. Whether binding was seen depends on the method and setting. In cells and extracts the contact can be indirect. Binding can be weak; no strength is given.
